Some of the results follow.
Legend:
Test in all cases: log2 fold change, soluble protein after heating vs DMSO (PISA); higher = thermal stabilisation; K562 lysate, 10 uM; active = over 0.2 and 3.5 SD of the protein, either way, in both replicates (recomputed)
[1] = compound: C1=CC=C(C=C1)[C@H](COC2=CC3=C(C=C2)NC(=O)N3)NC(=O)C4=CC=CN(C4=O)CC5=CC(=C(C=C5)F)F
Procedure, shortened: (§1)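 Quantification was by TMTpro 16plex LC-MS/MS with equalised channel sums, applied to the supernatant after 21,000xg for 90 min. Samples were crude K562 extract at 1 mg/mL protein in PBS pH 7.4 with 1 mM MgCl2, treated with 10 μM compound for 30 min, heated for 3 min across 48°C-58°C, pooled and brought to 0.5% NP-40 at 4°C. Values are log-two fold changes in thermal stability relative to solvent controls, from duplicates.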

Amino acid sequences for entries named in this document (tags omitted). A change or cut given only in a name is not applied to a line headed by its entry.
UniProt Q460N5, whole entry, looked up: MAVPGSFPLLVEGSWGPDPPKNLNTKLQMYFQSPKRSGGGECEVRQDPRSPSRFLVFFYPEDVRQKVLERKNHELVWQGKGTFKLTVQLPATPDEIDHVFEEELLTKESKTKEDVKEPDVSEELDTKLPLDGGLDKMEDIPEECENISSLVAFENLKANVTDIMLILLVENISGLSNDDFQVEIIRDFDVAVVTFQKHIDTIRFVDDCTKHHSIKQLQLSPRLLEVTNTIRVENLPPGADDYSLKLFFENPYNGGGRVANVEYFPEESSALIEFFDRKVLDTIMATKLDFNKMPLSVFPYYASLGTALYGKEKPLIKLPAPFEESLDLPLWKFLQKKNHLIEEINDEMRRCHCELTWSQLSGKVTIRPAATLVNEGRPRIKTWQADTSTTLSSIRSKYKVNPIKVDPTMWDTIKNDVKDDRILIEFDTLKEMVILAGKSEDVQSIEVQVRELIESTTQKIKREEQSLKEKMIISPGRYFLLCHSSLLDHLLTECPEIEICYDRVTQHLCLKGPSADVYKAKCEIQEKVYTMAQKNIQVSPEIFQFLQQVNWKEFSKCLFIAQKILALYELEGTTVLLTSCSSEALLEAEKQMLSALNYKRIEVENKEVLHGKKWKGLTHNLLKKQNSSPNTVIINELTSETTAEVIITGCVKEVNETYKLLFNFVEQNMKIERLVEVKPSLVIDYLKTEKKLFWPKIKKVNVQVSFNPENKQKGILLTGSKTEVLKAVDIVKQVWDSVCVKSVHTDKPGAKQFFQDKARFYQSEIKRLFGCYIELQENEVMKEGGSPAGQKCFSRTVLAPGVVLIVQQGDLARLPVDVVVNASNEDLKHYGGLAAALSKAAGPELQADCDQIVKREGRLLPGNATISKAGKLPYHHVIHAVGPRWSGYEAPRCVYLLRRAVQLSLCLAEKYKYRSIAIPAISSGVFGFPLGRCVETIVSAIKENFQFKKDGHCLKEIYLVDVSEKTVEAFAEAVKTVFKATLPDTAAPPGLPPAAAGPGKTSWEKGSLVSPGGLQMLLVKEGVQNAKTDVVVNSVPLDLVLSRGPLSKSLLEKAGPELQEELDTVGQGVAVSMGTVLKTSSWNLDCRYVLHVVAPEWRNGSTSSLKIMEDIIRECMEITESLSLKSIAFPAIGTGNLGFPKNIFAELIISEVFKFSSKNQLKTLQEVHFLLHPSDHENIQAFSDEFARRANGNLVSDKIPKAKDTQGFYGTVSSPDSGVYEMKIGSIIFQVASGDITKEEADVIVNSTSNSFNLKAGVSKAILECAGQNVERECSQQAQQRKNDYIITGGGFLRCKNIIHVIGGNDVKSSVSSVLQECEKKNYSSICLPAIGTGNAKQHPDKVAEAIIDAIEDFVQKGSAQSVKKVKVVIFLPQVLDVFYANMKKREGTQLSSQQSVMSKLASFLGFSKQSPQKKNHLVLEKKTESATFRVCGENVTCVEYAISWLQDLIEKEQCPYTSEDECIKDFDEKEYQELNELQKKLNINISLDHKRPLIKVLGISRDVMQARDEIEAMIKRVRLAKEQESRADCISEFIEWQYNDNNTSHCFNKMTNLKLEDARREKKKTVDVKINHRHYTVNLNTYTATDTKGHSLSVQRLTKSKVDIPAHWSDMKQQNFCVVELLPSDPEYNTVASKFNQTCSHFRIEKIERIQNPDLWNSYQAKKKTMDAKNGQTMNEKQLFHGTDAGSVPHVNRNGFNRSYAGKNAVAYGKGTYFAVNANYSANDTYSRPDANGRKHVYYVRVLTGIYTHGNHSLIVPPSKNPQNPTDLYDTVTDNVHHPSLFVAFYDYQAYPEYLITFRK
UniProt Q9UKL6: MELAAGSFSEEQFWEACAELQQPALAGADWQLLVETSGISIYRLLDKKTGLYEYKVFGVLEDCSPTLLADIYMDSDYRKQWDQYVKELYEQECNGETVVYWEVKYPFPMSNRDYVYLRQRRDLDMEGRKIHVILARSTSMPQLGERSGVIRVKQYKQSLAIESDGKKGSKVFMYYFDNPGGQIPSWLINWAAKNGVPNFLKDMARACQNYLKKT
UniProt Q9NQP4, whole entry, looked up: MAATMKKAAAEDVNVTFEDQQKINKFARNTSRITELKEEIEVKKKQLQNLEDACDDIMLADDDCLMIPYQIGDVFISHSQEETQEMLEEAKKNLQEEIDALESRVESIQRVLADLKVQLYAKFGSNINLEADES
UniProt Q9H792: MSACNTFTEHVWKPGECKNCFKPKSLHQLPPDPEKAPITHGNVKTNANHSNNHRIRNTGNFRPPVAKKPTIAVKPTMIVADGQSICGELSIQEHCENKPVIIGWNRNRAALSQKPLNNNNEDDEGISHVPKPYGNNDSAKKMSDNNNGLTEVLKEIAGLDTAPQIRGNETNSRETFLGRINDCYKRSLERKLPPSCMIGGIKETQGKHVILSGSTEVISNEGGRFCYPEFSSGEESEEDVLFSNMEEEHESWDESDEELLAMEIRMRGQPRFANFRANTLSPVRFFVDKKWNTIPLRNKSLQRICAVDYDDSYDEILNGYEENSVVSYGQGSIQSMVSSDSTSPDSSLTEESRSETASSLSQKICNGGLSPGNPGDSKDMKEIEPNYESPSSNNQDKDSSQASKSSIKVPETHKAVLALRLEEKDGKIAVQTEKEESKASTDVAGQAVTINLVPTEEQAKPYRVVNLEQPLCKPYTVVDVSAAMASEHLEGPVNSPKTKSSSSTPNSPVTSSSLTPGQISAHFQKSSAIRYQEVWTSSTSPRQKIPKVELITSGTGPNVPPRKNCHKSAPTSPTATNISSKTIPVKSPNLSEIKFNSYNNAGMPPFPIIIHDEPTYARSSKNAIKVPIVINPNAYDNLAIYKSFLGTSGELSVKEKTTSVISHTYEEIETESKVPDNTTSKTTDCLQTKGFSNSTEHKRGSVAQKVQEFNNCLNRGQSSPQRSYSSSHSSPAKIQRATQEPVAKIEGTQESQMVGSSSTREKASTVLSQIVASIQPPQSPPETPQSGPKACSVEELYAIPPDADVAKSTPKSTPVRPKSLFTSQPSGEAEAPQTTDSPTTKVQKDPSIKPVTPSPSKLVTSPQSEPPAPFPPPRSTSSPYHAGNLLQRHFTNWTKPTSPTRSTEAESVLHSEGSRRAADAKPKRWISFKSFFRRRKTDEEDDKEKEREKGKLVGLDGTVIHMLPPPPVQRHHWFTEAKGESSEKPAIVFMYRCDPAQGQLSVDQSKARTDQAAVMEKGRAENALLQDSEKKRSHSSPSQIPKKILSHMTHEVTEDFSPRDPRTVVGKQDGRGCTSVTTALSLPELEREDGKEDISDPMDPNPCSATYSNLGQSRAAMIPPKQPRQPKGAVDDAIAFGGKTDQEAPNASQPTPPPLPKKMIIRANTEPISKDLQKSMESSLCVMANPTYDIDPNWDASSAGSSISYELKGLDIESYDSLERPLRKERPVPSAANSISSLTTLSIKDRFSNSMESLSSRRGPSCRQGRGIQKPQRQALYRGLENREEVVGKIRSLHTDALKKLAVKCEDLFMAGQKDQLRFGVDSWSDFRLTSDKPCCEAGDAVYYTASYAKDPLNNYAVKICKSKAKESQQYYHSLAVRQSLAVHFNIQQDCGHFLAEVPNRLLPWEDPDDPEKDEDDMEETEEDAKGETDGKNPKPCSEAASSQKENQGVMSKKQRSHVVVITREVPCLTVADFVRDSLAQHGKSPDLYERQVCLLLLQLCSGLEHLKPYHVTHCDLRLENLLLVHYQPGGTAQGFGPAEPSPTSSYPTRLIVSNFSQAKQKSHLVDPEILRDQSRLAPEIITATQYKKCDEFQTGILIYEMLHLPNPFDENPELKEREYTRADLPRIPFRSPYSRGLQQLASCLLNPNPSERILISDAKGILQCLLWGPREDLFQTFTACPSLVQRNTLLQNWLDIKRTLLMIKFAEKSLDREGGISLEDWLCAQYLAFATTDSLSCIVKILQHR
UniProt Q8NEN9: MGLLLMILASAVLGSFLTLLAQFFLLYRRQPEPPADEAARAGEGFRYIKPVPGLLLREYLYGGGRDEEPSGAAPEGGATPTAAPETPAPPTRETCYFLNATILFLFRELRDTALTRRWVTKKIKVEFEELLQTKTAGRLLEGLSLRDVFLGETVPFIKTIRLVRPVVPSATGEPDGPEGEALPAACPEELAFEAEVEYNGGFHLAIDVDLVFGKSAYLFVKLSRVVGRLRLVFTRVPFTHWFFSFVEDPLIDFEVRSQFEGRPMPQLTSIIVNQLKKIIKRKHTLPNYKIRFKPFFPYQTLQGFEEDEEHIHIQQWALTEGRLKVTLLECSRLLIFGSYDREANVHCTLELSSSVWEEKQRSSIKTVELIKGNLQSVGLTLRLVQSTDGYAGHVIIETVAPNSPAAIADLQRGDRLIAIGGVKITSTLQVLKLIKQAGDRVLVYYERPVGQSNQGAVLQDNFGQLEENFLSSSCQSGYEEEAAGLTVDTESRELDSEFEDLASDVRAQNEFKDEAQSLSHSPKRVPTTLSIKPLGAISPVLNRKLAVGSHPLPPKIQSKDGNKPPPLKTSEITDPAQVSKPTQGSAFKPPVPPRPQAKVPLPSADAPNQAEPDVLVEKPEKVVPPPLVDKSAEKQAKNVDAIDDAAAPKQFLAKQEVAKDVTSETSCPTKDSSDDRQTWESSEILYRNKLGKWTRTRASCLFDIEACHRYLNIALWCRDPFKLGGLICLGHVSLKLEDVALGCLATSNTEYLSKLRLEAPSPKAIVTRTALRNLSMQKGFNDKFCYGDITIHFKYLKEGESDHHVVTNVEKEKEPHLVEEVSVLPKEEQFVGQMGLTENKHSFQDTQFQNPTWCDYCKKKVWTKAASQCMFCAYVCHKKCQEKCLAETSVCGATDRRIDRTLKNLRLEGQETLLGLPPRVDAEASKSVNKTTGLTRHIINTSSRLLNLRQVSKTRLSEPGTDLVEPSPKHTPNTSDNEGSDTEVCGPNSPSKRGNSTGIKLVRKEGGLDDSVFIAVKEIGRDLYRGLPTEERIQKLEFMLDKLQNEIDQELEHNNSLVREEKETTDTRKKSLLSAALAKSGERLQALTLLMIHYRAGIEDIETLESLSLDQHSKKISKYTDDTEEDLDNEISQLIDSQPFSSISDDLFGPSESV
UniProt Q32M88: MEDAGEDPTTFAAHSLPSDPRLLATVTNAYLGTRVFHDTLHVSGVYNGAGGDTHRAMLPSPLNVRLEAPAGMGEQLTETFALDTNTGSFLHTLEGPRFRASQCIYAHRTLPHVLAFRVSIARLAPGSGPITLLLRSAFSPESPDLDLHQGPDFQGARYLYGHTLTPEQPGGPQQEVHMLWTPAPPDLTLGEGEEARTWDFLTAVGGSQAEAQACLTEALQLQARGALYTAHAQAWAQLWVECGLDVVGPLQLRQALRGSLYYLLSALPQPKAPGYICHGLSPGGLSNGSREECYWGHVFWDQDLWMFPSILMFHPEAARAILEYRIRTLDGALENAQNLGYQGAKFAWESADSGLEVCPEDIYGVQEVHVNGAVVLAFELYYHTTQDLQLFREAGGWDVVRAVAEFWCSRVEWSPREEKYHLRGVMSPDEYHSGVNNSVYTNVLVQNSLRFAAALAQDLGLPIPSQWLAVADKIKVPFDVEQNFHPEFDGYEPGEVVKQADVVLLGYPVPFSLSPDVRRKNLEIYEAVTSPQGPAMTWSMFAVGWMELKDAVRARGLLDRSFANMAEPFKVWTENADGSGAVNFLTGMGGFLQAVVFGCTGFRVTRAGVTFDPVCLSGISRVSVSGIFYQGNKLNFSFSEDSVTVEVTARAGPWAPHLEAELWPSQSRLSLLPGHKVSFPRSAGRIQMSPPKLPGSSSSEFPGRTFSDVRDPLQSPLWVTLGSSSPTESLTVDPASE
UniProt P35227: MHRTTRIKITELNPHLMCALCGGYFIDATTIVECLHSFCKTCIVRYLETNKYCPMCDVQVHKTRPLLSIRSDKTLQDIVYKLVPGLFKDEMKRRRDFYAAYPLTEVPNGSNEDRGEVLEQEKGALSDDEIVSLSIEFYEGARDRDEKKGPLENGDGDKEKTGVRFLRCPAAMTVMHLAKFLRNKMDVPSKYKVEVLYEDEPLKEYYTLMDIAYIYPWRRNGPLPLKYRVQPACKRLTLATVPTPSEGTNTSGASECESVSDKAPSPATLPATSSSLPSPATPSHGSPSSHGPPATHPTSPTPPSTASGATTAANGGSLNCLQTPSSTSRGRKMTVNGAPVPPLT
UniProt Q9Y5Y5: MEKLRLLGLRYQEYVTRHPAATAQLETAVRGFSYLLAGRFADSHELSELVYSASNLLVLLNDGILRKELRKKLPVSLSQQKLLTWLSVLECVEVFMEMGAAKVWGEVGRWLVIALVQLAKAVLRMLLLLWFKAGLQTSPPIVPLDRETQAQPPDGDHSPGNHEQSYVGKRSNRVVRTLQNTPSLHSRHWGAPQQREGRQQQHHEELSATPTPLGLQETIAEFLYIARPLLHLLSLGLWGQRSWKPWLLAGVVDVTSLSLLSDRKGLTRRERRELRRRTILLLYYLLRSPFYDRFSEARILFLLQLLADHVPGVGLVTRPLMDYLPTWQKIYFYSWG

[2] = compound: CC1=C(SC2=C1C(=N[C@H](C3=NN=C(N32)C)CC(=O)N)C4=CC=C(C=C4)Cl)C
Procedure, shortened: as §1

[3] = compound: CC1=C2C(=CC=C1)N=C(N(C2=O)C3=CC=CC=C3C)CN4C=NC5=C(N=CN=C54)N
Procedure, shortened: as §1

[4] = compound: Cc1sc2c(c1C)C(c1ccc(Cl)cc1)=N[C@@H](CC(=O)OC(C)(C)C)c1nnc(C)n1-2
Procedure, shortened: as §1

[5] = compound: c1ccc([C@@H]2C[C@H]2NC2CCNCC2)cc1
Procedure, shortened: as §1

Measured: log2 fold change

PDCD2 (UniProt Q16342)
inactive: [1] 0.017 | [2] -0.073 | [3] 0.036 | [4] -0.006 | [5] -0.013

PCNP (UniProt Q8WW12)
inactive: [1] 0.023 | [2] 0.038 | [3] -0.023 | [4] -0.014 | [5] -0.058

PFDN5 (UniProt Q99471)
inactive: [1] 0.039 | [2] -0.006 | [3] -0.05 | [4] -0.007 | [5] 0.081

PBXIP1 (UniProt Q96AQ6)
inactive: [1] -0.009 | [2] -0.01 | [3] -0.007 | [4] -0.016 | [5] -0.022

Looked up one by one from the entries so far (two):
PBXIP1 (UniProt Q96AQ6)
inactive: [1] -0.009 | [2] -0.01 | [3] -0.007 | [4] -0.016 | [5] -0.022

PDCD2 (UniProt Q16342)
inactive: [1] 0.017 | [2] -0.073 | [3] 0.036 | [4] -0.006 | [5] -0.013

(cont.)

PARP14 (UniProt Q460N5)
inactive: [1] 0.021 | [2] -0.003 | [3] 0.063 | [4] -0.028 | [5] -0.045

PCTP (UniProt Q9UKL6)
inactive: [1] -0.059 | [2] 0.017 | [3] -0.009 | [4] -0.061 | [5] -0.036

PFDN4 (UniProt Q9NQP4)
inactive: [1] 0.033 | [2] -0.039 | [3] 0.007 | [4] 0.086 | [5] -0.037

PDLIM1 (UniProt O00151)
inactive: [1] 0.065 | [2] -0.029 | [3] -0.024 | [4] 0.013 | [5] -0.039

PEX11B (UniProt O96011)
inactive: [1] 0.047 | [2] -0.026 | [3] 0.001 | [4] -0.017 | [5] 0.271

PDIA4 (UniProt P13667)
inactive: [1] -0.004 | [2] -0.006 | [3] -0.009 | [4] 0.002 | [5] 0.037

PEAK1 (UniProt Q9H792)
inactive: [1] -0.179 | [2] 0.113 | [3] 0.146 | [4] 0.072 | [5] 0.019

PCYT2 isoform 3 (UniProt Q99447)
inactive: [1] -0.017 | [2] 0.04 | [3] 0.012 | [4] -0.033 | [5] 0.004

PDZD8 (UniProt Q8NEN9)
inactive: [1] -0.036 | [2] -0.012 | [3] -0.042 | [4] -0.013 | [5] -0.012

PAXBP1 (UniProt Q9Y5B6)
inactive: [1] -0.004 | [2] -0.026 | [3] 0.026 | [4] 0.057 | [5] 0.001

PGGHG (UniProt Q32M88)
inactive: [1] 0.024 | [2] 0.026 | [3] -0.01 | [4] -0.017 | [5] -0.02

PARP2 (UniProt Q9UGN5)
inactive: [1] 0.036 | [2] -0.052 | [3] 0.035 | [4] -0.021 | [5] 0.052

PCGF2 (UniProt P35227)
inactive: [1] -0.056 | [2] -0.043 | [3] -0.039 | [4] 0.003 | [5] -0.008

PEX16 isoform 2 (UniProt Q9Y5Y5)
inactive: [1] -0.072 | [2] 0 | [3] -0.013 | [4] 0.016 | [5] 0.093

PDCD6IP isoform 2 (UniProt Q8WUM4)
inactive: [1] -0.019 | [2] -0.004 | [3] 0.018 | [4] 0.02 | [5] 0.056

PCBP3 (UniProt P57721)
inactive: [1] -0.028 | [2] 0.014 | [3] -0.026 | [4] 0.021 | [5] 0

PDIA6 isoform 2 (UniProt Q15084)
inactive: [1] 0.049 | [2] -0.001 | [3] 0.008 | [4] -0.015 | [5] 0.005

PFAS (UniProt O15067)
inactive: [1] 0.007 | [2] 0.017 | [3] 0.02 | [4] 0.042 | [5] 0.023

PDK1 (UniProt Q15118)
inactive: [1] -0.154 | [2] 0.037 | [3] 0.045 | [4] 0.107 | [5] 0.062

PDCL (UniProt Q13371)
inactive: [1] 0.05 | [2] -0.032 | [3] 0.051 | [4] -0.004 | [5] -0.01

From the supplement of paper PMC10849652
